From the supplement of paper PMC7661543
Differences between knockout arms are mostly noise.

Test system: HCC-38
Experiment: relative cell number vs DMSO control (72 h) (% of DMSO); higher = less growth inhibition (more cells)
Description: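 QMAP-Seq: a pool of 5 breast cancer cell lines (ZR-75-1, SKBR3, HCC-38, MDA-MB-231, BT-20), each carrying 12 doxycycline-inducible Cas9 sgRNA perturbations (11 knockouts plus non-targeting sgNT), was treated with compounds for 72 h at four 10-fold doses (10 nM-10 uM or 1 nM-1 uM range). Barcodes were amplified and sequenced, and cell number was interpolated from 293T spike-in standard curves. The result is expressed as % of the median of DMSO wells. Two biological replicates.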

C[C@@H](Nc1cc(F)cc(F)c1)c1cc(C(=O)N(C)C)cc2c(=O)cc(N3CCOCC3)oc12 [AZD8186]
Conditions	relative cell number
sgRNA knockout: sgATF3, 10 nM	113
sgRNA knockout: sgATF3, 100 nM	124
sgRNA knockout: sgATF3, 1000 nM	103
sgRNA knockout: sgATF3, 10000 nM	89.6
sgRNA knockout: sgATF4, 10 nM	98
sgRNA knockout: sgATF4, 100 nM	118
sgRNA knockout: sgATF4, 1000 nM	106
sgRNA knockout: sgATF4, 10000 nM	82.4
sgRNA knockout: sgATF6, 10 nM	105
sgRNA knockout: sgATF6, 100 nM	135
sgRNA knockout: sgATF6, 1000 nM	96.8
sgRNA knockout: sgATF6, 10000 nM	88.2
sgRNA knockout: sgATG7, 10 nM	103
sgRNA knockout: sgATG7, 100 nM	110
sgRNA knockout: sgATG7, 1000 nM	99.3
sgRNA knockout: sgATG7, 10000 nM	81.6
sgRNA knockout: sgERN1, 10 nM	105
sgRNA knockout: sgERN1, 100 nM	122
sgRNA knockout: sgERN1, 1000 nM	105
sgRNA knockout: sgERN1, 10000 nM	89.3
sgRNA knockout: sgHSF1, 10 nM	119
sgRNA knockout: sgHSF1, 100 nM	136
sgRNA knockout: sgHSF1, 1000 nM	119
sgRNA knockout: sgHSF1, 10000 nM	100
sgRNA knockout: sgHSF2, 10 nM	114
sgRNA knockout: sgHSF2, 100 nM	130
sgRNA knockout: sgHSF2, 1000 nM	112
sgRNA knockout: sgHSF2, 10000 nM	93.5
sgRNA knockout: sgKEAP1, 10 nM	118
sgRNA knockout: sgKEAP1, 100 nM	160
sgRNA knockout: sgKEAP1, 1000 nM	106
sgRNA knockout: sgKEAP1, 10000 nM	104.63
sgRNA knockout: sgNFE2L2, 10 nM	100
sgRNA knockout: sgNFE2L2, 100 nM	113
sgRNA knockout: sgNFE2L2, 1000 nM	95.8
sgRNA knockout: sgNFE2L2, 10000 nM	78.9
sgRNA knockout: sgSLC35F2, 10 nM	106
sgRNA knockout: sgSLC35F2, 100 nM	122
sgRNA knockout: sgSLC35F2, 1000 nM	100
sgRNA knockout: sgSLC35F2, 10000 nM	85
sgRNA knockout: sgXBP1, 10 nM	106
sgRNA knockout: sgXBP1, 100 nM	117
sgRNA knockout: sgXBP1, 1000 nM	104
sgRNA knockout: sgXBP1, 10000 nM	88.8

CC(C)C[C@H](NC(=O)[C@H](Cc1ccccc1)NC(=O)c1cnccn1)B(O)O [Bortezomib]
Conditions	relative cell number
sgRNA knockout: sgATF3, 1 nM	105
sgRNA knockout: sgATF3, 10 nM	41.6
sgRNA knockout: sgATF3, 100 nM	6.14
sgRNA knockout: sgATF3, 1000 nM	6.83
sgRNA knockout: sgATF4, 1 nM	91.1
sgRNA knockout: sgATF4, 10 nM	43.5
sgRNA knockout: sgATF4, 100 nM	5.86
sgRNA knockout: sgATF4, 1000 nM	6.27
sgRNA knockout: sgATF6, 1 nM	85
sgRNA knockout: sgATF6, 10 nM	39.2
sgRNA knockout: sgATF6, 100 nM	4.77
sgRNA knockout: sgATF6, 1000 nM	7.75
sgRNA knockout: sgATG7, 1 nM	88.3
sgRNA knockout: sgATG7, 10 nM	46.7
sgRNA knockout: sgATG7, 100 nM	5.72
sgRNA knockout: sgATG7, 1000 nM	6.59
sgRNA knockout: sgERN1, 1 nM	85.7
sgRNA knockout: sgERN1, 10 nM	41.3
sgRNA knockout: sgERN1, 100 nM	5.4
sgRNA knockout: sgERN1, 1000 nM	5.09
sgRNA knockout: sgHSF1, 1 nM	73.2
sgRNA knockout: sgHSF1, 10 nM	30.5
sgRNA knockout: sgHSF1, 100 nM	8.4
sgRNA knockout: sgHSF1, 1000 nM	7.9
sgRNA knockout: sgHSF2, 1 nM	95.4
sgRNA knockout: sgHSF2, 10 nM	46.3
sgRNA knockout: sgHSF2, 100 nM	5.95
sgRNA knockout: sgHSF2, 1000 nM	7.83
sgRNA knockout: sgKEAP1, 1 nM	77.8
sgRNA knockout: sgKEAP1, 10 nM	38.8
sgRNA knockout: sgKEAP1, 100 nM	5.94
sgRNA knockout: sgKEAP1, 1000 nM	7.84
sgRNA knockout: sgNFE2L2, 1 nM	93.2
sgRNA knockout: sgNFE2L2, 10 nM	37.8
sgRNA knockout: sgNFE2L2, 100 nM	6.06
sgRNA knockout: sgNFE2L2, 1000 nM	5.96
sgRNA knockout: sgSLC35F2, 1 nM	95.3
sgRNA knockout: sgSLC35F2, 10 nM	47.37
sgRNA knockout: sgSLC35F2, 100 nM	7.92
sgRNA knockout: sgSLC35F2, 1000 nM	8.53
sgRNA knockout: sgXBP1, 1 nM	100
sgRNA knockout: sgXBP1, 10 nM	44.8
sgRNA knockout: sgXBP1, 100 nM	7.28
sgRNA knockout: sgXBP1, 1000 nM	8.11

CC[C@H](Nc1ncnc2[nH]cnc12)c1nc2cccc(F)c2c(=O)n1-c1ccccc1 [CAL101]
Conditions	relative cell number
sgRNA knockout: sgATF3, 10 nM	98.6
sgRNA knockout: sgATF3, 100 nM	85.9
sgRNA knockout: sgATF3, 1000 nM	93.6
sgRNA knockout: sgATF3, 10000 nM	83.9
sgRNA knockout: sgATF4, 10 nM	92.8
sgRNA knockout: sgATF4, 100 nM	88.5
sgRNA knockout: sgATF4, 1000 nM	88.6
sgRNA knockout: sgATF4, 10000 nM	75
sgRNA knockout: sgATF6, 10 nM	108
sgRNA knockout: sgATF6, 100 nM	85.5
sgRNA knockout: sgATF6, 1000 nM	98.6
sgRNA knockout: sgATF6, 10000 nM	93.8
sgRNA knockout: sgATG7, 10 nM	83.5
sgRNA knockout: sgATG7, 100 nM	102
sgRNA knockout: sgATG7, 1000 nM	91.3
sgRNA knockout: sgATG7, 10000 nM	84.1
sgRNA knockout: sgERN1, 10 nM	88.3
sgRNA knockout: sgERN1, 100 nM	92.7
sgRNA knockout: sgERN1, 1000 nM	94.3
sgRNA knockout: sgERN1, 10000 nM	80.5
sgRNA knockout: sgHSF1, 10 nM	97.7
sgRNA knockout: sgHSF1, 100 nM	72.2
sgRNA knockout: sgHSF1, 1000 nM	99.2
sgRNA knockout: sgHSF1, 10000 nM	115
sgRNA knockout: sgHSF2, 10 nM	99.9
sgRNA knockout: sgHSF2, 100 nM	94.7
sgRNA knockout: sgHSF2, 1000 nM	95.62
sgRNA knockout: sgHSF2, 10000 nM	105
sgRNA knockout: sgKEAP1, 10 nM	96.3
sgRNA knockout: sgKEAP1, 100 nM	88.5
sgRNA knockout: sgKEAP1, 1000 nM	106
sgRNA knockout: sgKEAP1, 10000 nM	94.5
sgRNA knockout: sgNFE2L2, 10 nM	89
sgRNA knockout: sgNFE2L2, 100 nM	91.1
sgRNA knockout: sgNFE2L2, 1000 nM	87.3
sgRNA knockout: sgNFE2L2, 10000 nM	81.1
sgRNA knockout: sgSLC35F2, 10 nM	89
sgRNA knockout: sgSLC35F2, 100 nM	100
sgRNA knockout: sgSLC35F2, 1000 nM	93.9
sgRNA knockout: sgSLC35F2, 10000 nM	84.2
sgRNA knockout: sgXBP1, 10 nM	91
sgRNA knockout: sgXBP1, 100 nM	91.9
sgRNA knockout: sgXBP1, 1000 nM	96.7
sgRNA knockout: sgXBP1, 10000 nM	94.6
